{"source": "PubChem BioAssay AID1259424, University of Nebraska Medical Center, 2018", "test": "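Seek colon cancer survival genes behaving like KSR1, using a six-gene signature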 (primary screen)", "system": "human HCT116 colon cancer cells", "reagents": "siRNA pool against human genes, 50 nM", "measurement": "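Log2 levels of six mRNAs (branched-DNA multiplex), adjusted by two reference genes and the non-targeting median, then scored against the average KSR1 knockdown pattern as Pearson r and euclidean distance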", "scale": "mean correlation with KSR1 profile: higher = expression change more like KSR1 knockdown; mean distance from KSR1 profile: higher = expression change less like KSR1 knockdown", "note": "The whole screen tested about 14,000 reagents; shown is an unselected part. 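Higher correlation or smaller distance means closer resemblance to KSR1 loss; control wells, including KSR1 knockdowns, recur on many plates.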 Not all columns of the deposit are shown. Not given: the time to read-out."}
{"gene knocked down": "F8", "mean correlation with KSR1 profile": 0.513, "mean distance from KSR1 profile": 2.02}
{"gene knocked down": "RGS6", "mean correlation with KSR1 profile": 0.356, "mean distance from KSR1 profile": 2.16}
{"gene knocked down": "F3", "mean correlation with KSR1 profile": -0.0755, "mean distance from KSR1 profile": 2.02}
{"gene knocked down": "DCHS1", "mean correlation with KSR1 profile": 0.445, "mean distance from KSR1 profile": 1.36}
{"gene knocked down": "C10orf88", "mean correlation with KSR1 profile": 0.641, "mean distance from KSR1 profile": 1.28}
{"gene knocked down": "P2RX7", "mean correlation with KSR1 profile": -0.526, "mean distance from KSR1 profile": 2.23}
{"gene knocked down": "CARTPT", "mean correlation with KSR1 profile": -0.758, "mean distance from KSR1 profile": 2.56}

2 of these entries in another layout:
{"gene knocked down":"RGS6","mean correlation with KSR1 profile":0.356,"mean distance from KSR1 profile":2.16}
{"gene knocked down":"F3","mean correlation with KSR1 profile":-0.0755,"mean distance from KSR1 profile":2.02}

Further entries follow:
{"gene knocked down": "TMEM11", "mean correlation with KSR1 profile": 0.777, "mean distance from KSR1 profile": 1.91}
{"gene knocked down": "TAF15", "mean correlation with KSR1 profile": 0.606, "mean distance from KSR1 profile": 0.97}
{"gene knocked down": "NDST2", "mean correlation with KSR1 profile": 0.078, "mean distance from KSR1 profile": 2.23}
{"gene knocked down": "TRIP11", "mean correlation with KSR1 profile": 0.441, "mean distance from KSR1 profile": 1.93}
{"gene knocked down": "LRMDA", "mean correlation with KSR1 profile": 0.547, "mean distance from KSR1 profile": 1.81}
